Experimental data reported in paper PMC8637440, “Structural Modifications Yield Novel Insights Into the Intriguing Pharmacodynamic Potential of Anti-inflammatory Nitro-Fatty Acids” (Frontiers in Pharmacology, 2021).

System: HCT-116 cells
Assay: WST-1 cell viability assay, HCT-116
Format: cell-based, human
Details: HCT-116, 24 h
Method: Cell viability was analyzed with the WST-1 assay based on the cleavage of the stable tetrazolium salt WST-1 by the mitochondrial reductase system. Cells were seeded in the appropriate densities in a clear 96-well plate and settled overnight at 37°C in 5% CO2. The next day, the cells were treated with NFA or the substances of interest (≤0.1% dimethyl sulfoxide [DMSO]) and incubated for 24 or 48 h at 37°C in 5% CO2. Cell viability was analyzed by adding 10 µl WST-1 solution (Roche, Basel, Switzerland) and subsequently incubating the cells at 37°C for another 30–40 min. Absorbance was measured at 450 nm with a control wavelength at 620 nm using a plate reader.
Besides targeting the NF-κB pathway, the anti-tumorigenic effects of NFA can be observed by a reduction of colorectal cancer cell viability. […] Again, the cytotoxic effects of NFA were determined in HCT-116 and HT-29 colorectal cancer cells in the present study. […] HCT-116 cells were treated with increasing concentrations of NFA differing in chain length and Michael acceptor position for 24 h, and cell viability was determined using the WST-1 assay. Due to their prolonged cell division rate and their lack of sensitivity towards NFA ([Kühn et al., 2018]), HT-29 cells were treated for 48 h to gain improved NFA activity.

CCC=C(CCCCCCCC(=O)O)[N+](=O)[O-] [12.9.9, 9-nitro-dodec-9-enoic acid]
IC50 higher compared to 9NOA: 3–4 fold

CCCCC=C(CCCCCCCC(=O)O)[N+](=O)[O-] [14.9.9, 9-nitro-tetradec-9-enoic acid]
IC50 higher compared to 9NOA: 3–4 fold
